Data reported in the supplement of paper PMC11732987, “Enantioselective OTUD7B fragment discovery through chemoproteomics screening and high-throughput optimisation” (Communications Chemistry, 2025).
The list shows a part of the results. The data scatter; read single values as rough.

Experiments:
[1] = compound: ClCC(=O)N[C@@H]1CCCc2ccccc12; experiment: log2 mean competition ratio of IA-DTB cysteine labelling (DMSO/compound) (log2 ratio); higher = stronger cysteine engagement by compound; conditions: treatment time: 4 h, cell line lysate: HEK293T
Protocol: (§1)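 IA-DTB competitive cysteine chemoproteomics in HEK293T RIPA lysate. Lysates were treated with compound 29 or 30 at 50 or 200 µM for 4 h, then IA-DTB (500 µM, 1 h), trypsin-digested, NeutrAvidin-enriched and analysed by diaPASEF. Competition ratio = intensity DMSO / intensity compound (n=4 treated, n=64 DMSO); binding: mean log2 CR ≥ 1 and p ≤ 0.05 plus QC filters. Target is the cysteine site.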

[2] = compound: ClCC(=O)N[C@H]1CCCc2ccccc12; experiment: as above; conditions: treatment time: 4 h, cell line lysate: HEK293T
Protocol: as §1

Row | Target | log2 mean competition ratio ([1]; 50 µM) | log2 mean competition ratio ([1]; 200 µM) | log2 mean competition ratio ([2]; 50 µM) | log2 mean competition ratio ([2]; 200 µM)
1 | RALGAPA1 C257 (UniProt Q6GYQ0) | 0.00099 | -0.613 | 0.133 | -0.333
2 | RFC2 C255 (UniProt P35250) | 0.14 | 0.0336 | -0.541 | -0.0617
3 | RBM20 C1077 (UniProt Q5T481) | -0.00215 | -0.0386 | 0.144 | 0.117
4 | RBBP8 C692 (UniProt Q99708) | -0.498 | -0.0191 | -0.397 | -0.0559
5 | RHOB C16 (UniProt P62745) | -0.103 | -0.325 | 0.456 | -0.0893
6 | RHOF C30 (UniProt Q9HBH0) | 0.0202 | 0.136 | 0.178 | 0.2
7 | RLF C663 (UniProt Q13129) | 0.0857 | -0.0166 | -0.033 | -0.0901
8 | RAPGEF1 C351 (UniProt Q13905) | 0.0265 | -0.0963 | -0.0636 | 0.216
9 | RIC8B C373 (UniProt Q9NVN3) | -0.443 | 0.249 | -0.379 | 0.112
10 | RIOK1 C185 (UniProt Q9BRS2) | -0.18 | -0.0534 | -0.108 | -0.0145
11 | RIOK1 C264 (UniProt Q9BRS2) | 0.0343 | -0.0529 | 0.0902 | -0.0349
12 | RARA C444 | -0.123 | 0.159 | -0.084 | 0.309
13 | RBM25 C132 (UniProt P49756) | -0.036 | 0.249 | -0.476 | -0.0859
14 | RBBP8 C92 (UniProt Q99708) | -0.0604 | -0.131 | -0.201 | -0.0461
15 | RASA1 C1002 (UniProt P20936) | 0.256 | -0.0532 | -0.368 | -0.181
16 | RFC5 C238 (UniProt P40937) | 0.105 | 0.0298 | -0.255 | -0.129
17 | RHOT2 C543 (UniProt Q8IXI1) | -0.0259 | -0.107 | 0.53 | -0.151
18 | RB1CC1 C831 (UniProt Q8TDY2) | 0.0239 | 0.0615 | -0.499 | 0.0899
19 | RADX C136 | -0.116 | -0.16 | 0.0179 | -0.108
20 | RGL2 C508 (UniProt O15211) | -0.169 | -0.204 | 0.188 | -0.413

Row | Target | log2 mean competition ratio ([1]; 50 µM) | log2 mean competition ratio ([1]; 200 µM) | log2 mean competition ratio ([2]; 50 µM) | log2 mean competition ratio ([2]; 200 µM)
21 | RFC1 C665 (UniProt P35251) | 0.057 | 0.248 | 0.22 | -0.192
22 | RIPK2 C286 (UniProt O43353) | -0.239 | 0.455 | -0.614 | 0.305
23 | RIC8A C341 (UniProt Q9NPQ8) | 0.22 | 0.285 | -0.176 | 0.227
24 | RERE C41 (UniProt Q9P2R6) | -0.139 | -0.141 | -0.0815 | 0.219
25 | RALGAPA2 C495 (UniProt Q2PPJ7) | -0.121 | -0.178 | -0.386 | -0.437
26 | RASAL1 C761 | -0.197 | -0.231 | -0.156 | -0.198
27 | RBM15B C128 (UniProt Q8NDT2) | -0.177 | -0.277 | 0.491 | -0.142
28 | RFC3 C303 (UniProt P40938) | -0.0232 | 0.296 | -0.457 | 0.0782
29 | RIF1 C1904 (UniProt Q5UIP0) | -0.109 | 0.183 | -0.102 | 0.214
30 | RBM47 C273 | -0.322 | -0.182 | -0.167 | -0.233
31 | RIPOR1 C1191 (UniProt Q6ZS17) | -0.159 | 0.161 | -0.031 | 0.0621
32 | RB1CC1 C946 (UniProt Q8TDY2) | -0.0464 | -0.253 | -0.193 | -0.376
33 | RIF1 C1692 (UniProt Q5UIP0) | -0.0437 | 0.186 | 0.000672 | 0.264
34 | RGPD8 C349 | 0.261 | 0.252 | -0.286 | 0.849
35 | RBM4 C162 (UniProt Q9BWF3) | -0.0855 | -0.0239 | -0.273 | -0.0456
36 | RALBP1 C4 (UniProt Q15311) | -0.299 | 0.0175 | -0.00806 | -0.137
37 | RERE C395 (UniProt Q9P2R6) | -0.0963 | 0.284 | -0.184 | 0.26
38 | RBL1 C918 (UniProt P28749) | -0.289 | 0.18 | -0.449 | -0.102
39 | RAPGEF1 C474 (UniProt Q13905) | -0.142 | 0.0906 | -0.0236 | 0.255
40 | RBM28 C125 (UniProt Q9NW13) | -0.00699 | -0.00901 | -0.0918 | 0.00698

Reprinted at random: four entries already listed, in no set order.
Row | Target | log2 mean competition ratio ([1]; 50 µM) | log2 mean competition ratio ([1]; 200 µM) | log2 mean competition ratio ([2]; 50 µM) | log2 mean competition ratio ([2]; 200 µM)
24 | RERE C41 (UniProt Q9P2R6) | -0.139 | -0.141 | -0.0815 | 0.219
28 | RFC3 C303 (UniProt P40938) | -0.0232 | 0.296 | -0.457 | 0.0782
31 | RIPOR1 C1191 (UniProt Q6ZS17) | -0.159 | 0.161 | -0.031 | 0.0621
38 | RBL1 C918 (UniProt P28749) | -0.289 | 0.18 | -0.449 | -0.102

Remaining list, next part:

Row | Target | log2 mean competition ratio ([1]; 50 µM) | log2 mean competition ratio ([1]; 200 µM) | log2 mean competition ratio ([2]; 50 µM) | log2 mean competition ratio ([2]; 200 µM)
41 | RANBP2 C1335 (UniProt P49792) | -0.101 | 0.134 | -0.111 | 0.0993
42 | RNASEH2A C24 (UniProt O75792) | -0.0789 | 0.112 | 0.293 | 0.156
43 | RCC1L C181 (UniProt Q96I51) | 0.155 | -0.0888 | 0.279 | -0.0314
44 | RANBP3 C228 (UniProt Q9H6Z4) | -0.223 | 0.14 | -0.316 | -0.151
45 | RALGAPA1 C1428 (UniProt Q6GYQ0) | -0.0753 | -0.165 | 0.768 | -0.033
46 | RB1 C61 (UniProt P06400) | -0.374 | -0.0144 | 0.00854 | 0.0206
47 | RING1 C398 (UniProt Q06587) | 0.208 | 0.12 | -0.244 | 0.0653
48 | RECQL5 C427 (UniProt O94762) | 0.0566 | -0.0448 | 0.0836 | 0.0227
49 | RIF1 C880 (UniProt Q5UIP0) | 0.129 | 0.125 | 0.382 | 0.0209
50 | RIF1 C2450 (UniProt Q5UIP0) | 0.277 | -0.447 | 0.6 | -0.152
51 | RFT1 C70 (UniProt Q96AA3) | 0.197 | -0.32 | -0.0771 | -0.232
52 | RANBP2 C220 (UniProt P49792) | 0.229 | -0.0993 | 0.832 | -0.185
53 | RAVER2 C82 (UniProt Q9HCJ3) | -0.304 | -0.0207 | -0.251 | -0.0348
54 | RALBP1 C291 (UniProt Q15311) | -0.0624 | 0.138 | -0.0374 | 0.274
55 | RANBP2 C3100 (UniProt P49792) | -0.226 | -0.0818 | -0.209 | 0.0372
56 | RBL2 C274 (UniProt Q08999) | -0.395 | 0.0318 | 0.0298 | 0.0479
57 | RECQL C471 (UniProt P46063) | 0.152 | 0.11 | 0.356 | -0.0222
58 | RECQL5 C532 (UniProt O94762) | -0.329 | -0.293 | -0.147 | -0.274
59 | RBM28 C71 (UniProt Q9NW13) | 0.0177 | -0.0399 | 0.36 | 0.0913
